Experimental findings from doi:10.1101/2024.08.12.607668 (bioRxiv, 2024) are described below.

No constants are given. Whether binding was seen depends on the method and setting. For some assays here: Binding can be weak; no strength is given. Sequences can lack the tags named with a protein.

Assay [1] addresses AbrBBS K76A mutant, His6-tagged (B. subtilis 168). Briefly: native gel or EMSA. On the technique in general: In EMSA bound probe runs differently from free probe, usually more slowly.
In assay [2] the target is AbrBBS R15A mutant, His6-tagged (B. subtilis 168). Briefly: native gel or EMSA.

B1: AbrB antirepressor AbbA from B. subtilis 168, His6-tagged (natural protein, UniProt O31697 1-65, looked up)
chain: MRMSLIGERFTEEEQKLLLNILINHEYAIELLSSEINDIETGTKNVDGTTYKKLVTLYDRFRFEN
On to B1, for which the binding result in assay [1] is given as “binds”; in assay [2] it was “no binding”.
